Experimental findings from US20210388022A1, “SUBSTITUTED GUANIDINO AND AMIDINO REAGENTS AND THE USE THEREOF FOR PROTEIN DENATURATION” (Waters Technologies Corporation, priority 2020, published 2021) are described below.

The data set can be described thus: Downstream interference of denaturants in generic LC-MS peptide mapping method. The following applies: 1 mM denaturant in digestion buffer.
As to `CN(C)C(=N)N(C)C` [Reagent 1, 1,1,3,3-tetramethylguanidine], the “interference peaks across the gradient (1-40% acetonitrile) where peptides normally elute” value was “did not appear to show significant interference peaks”. Regarding `C1CN=C2NCCCN2C1` [Reagent 3, 1,5,7-triazabicyclo[4.4.0]dec-5-ene], the “interference peaks across the gradient (1-40% acetonitrile) where peptides normally elute” value was “did not appear to show significant interference peaks”. Next, `CN(C)C(=NC(C)(C)C)N(C)C` [Reagent 2, 2-tert-butyl-1,1,3,3-tetramethylguanidine]: “showed two prominent peaks”.
